Test results: US11518785B2 (CAREGEN CO., LTD., priority 2017, dated 2022)

Experiment: general procedure: Fmoc solid-phase peptide synthesis; Leu-CTC resin; HBTu/HoBt/DIEA
Conditions: whole synthesis, scale 200 mmol

FCLGPCPYIWSL showed a crude mass of 129.8 g and a crude yield of 92.8%.

End groups of sequences in plain letters are not given here.
